Our source for the binding values is PMC1526750.

Amino acid sequences for entries named in this document (tags omitted). A change or cut given only in a name is not applied to a line headed by its entry. Chains listed by the source or under a name are the forms on record and can include a tag or linker.
UniProt Q9H165: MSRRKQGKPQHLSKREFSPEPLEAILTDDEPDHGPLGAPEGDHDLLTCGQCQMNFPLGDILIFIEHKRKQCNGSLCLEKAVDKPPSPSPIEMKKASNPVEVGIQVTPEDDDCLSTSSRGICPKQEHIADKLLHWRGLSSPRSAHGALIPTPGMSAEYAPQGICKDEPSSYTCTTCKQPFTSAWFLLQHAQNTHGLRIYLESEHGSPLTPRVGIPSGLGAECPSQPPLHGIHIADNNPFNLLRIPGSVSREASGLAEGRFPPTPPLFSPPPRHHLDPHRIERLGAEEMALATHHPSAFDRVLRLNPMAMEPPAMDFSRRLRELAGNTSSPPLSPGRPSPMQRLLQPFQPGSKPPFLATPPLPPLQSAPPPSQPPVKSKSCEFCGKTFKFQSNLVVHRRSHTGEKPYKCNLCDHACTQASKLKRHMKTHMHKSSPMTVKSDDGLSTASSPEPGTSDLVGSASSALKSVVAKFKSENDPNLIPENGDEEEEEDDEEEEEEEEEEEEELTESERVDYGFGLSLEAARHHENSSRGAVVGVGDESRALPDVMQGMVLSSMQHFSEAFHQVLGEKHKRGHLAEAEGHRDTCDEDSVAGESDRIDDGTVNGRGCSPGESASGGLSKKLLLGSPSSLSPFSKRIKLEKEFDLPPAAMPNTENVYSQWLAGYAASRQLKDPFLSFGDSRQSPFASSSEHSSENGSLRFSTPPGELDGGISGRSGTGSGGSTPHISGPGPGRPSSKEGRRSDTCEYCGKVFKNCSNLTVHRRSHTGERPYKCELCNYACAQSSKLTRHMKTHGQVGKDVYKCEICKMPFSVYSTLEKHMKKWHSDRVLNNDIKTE
HA-BCL11A-L, in vitro translated, 35S-labeled (Q9H165-2, form named): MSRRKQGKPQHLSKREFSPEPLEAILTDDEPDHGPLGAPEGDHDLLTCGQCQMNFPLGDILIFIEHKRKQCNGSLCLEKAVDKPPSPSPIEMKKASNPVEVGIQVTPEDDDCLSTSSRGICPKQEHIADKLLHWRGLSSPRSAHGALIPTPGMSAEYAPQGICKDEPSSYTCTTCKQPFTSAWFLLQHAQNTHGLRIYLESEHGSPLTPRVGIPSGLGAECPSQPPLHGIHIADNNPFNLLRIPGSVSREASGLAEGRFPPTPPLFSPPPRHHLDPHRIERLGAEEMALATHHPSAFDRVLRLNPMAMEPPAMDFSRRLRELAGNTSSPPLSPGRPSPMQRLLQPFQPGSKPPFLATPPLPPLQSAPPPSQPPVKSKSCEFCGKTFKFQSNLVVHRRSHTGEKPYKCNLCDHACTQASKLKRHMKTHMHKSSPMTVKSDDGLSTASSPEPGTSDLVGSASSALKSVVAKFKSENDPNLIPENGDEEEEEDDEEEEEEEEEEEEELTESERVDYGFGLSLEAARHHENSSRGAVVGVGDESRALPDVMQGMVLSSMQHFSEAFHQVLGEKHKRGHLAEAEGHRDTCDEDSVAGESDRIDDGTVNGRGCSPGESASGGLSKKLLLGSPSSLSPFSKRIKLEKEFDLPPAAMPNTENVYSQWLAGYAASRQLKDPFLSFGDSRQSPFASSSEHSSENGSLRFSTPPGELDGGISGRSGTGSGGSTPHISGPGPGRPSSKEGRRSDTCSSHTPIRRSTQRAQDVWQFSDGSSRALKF

Results are given in words; binding and its absence hold for the method and conditions named. In cells and extracts the contact can be indirect. Some binding calls cover weakened binding; strength is not graded here.

Experiment [1] concerns the target Gal4DBD-BCL11A-XL, in vitro translated, unlabeled (human) (UniProt Q9H165). Nature of the experiment: co-IP; in vitro translated unlabeled Gal4DBD-BCL11A isoforms and 35S-labeled HA-BCL11A isoforms; anti-Gal4-DBD antibody, IP buffer (50 mM Tris-Cl pH 7.5, 150 mM NaCl, 5 mM MgCl2, 1 mM EDTA, 0.25% NP-40, 1 mM DTT), 1 hr at 4°C, protein A agarose.
Experiment [2] deals with Gal4DBD-BCL11A-L, in vitro translated, unlabeled (human) (UniProt Q9H165). Described as above.

For the substance “HA-BCL11A-XL, in vitro translated, 35S-labeled (from UniProt Q9H165-1 1-835)”, the binding result in experiment [1] was “binds”.
Consider “HA-BCL11A-L, in vitro translated, 35S-labeled (from UniProt Q9H165-2 1-773)”, for which the binding result in experiment [1] and in experiment [2] was “binds” each time.
